In article PMC6643046:
The exact form of at least one protein or probe is not confirmed. For some of these results: At least one verdict rests on a figure or table, not on a statement of the authors.

Assays:
Assay in all cases: EMSA
[1] = tested on: Halo-ZnF-Cst 1-11 (Mus musculus castaneus (CAST/EiJ)); settings: 10 mM Tris pH 7.5, 50 mM KCl, 50 uM ZnCl2, 0.05% NP-40 (1x TKZN), usually 50 ng/ul polydIdC, 60 min at RT, 5% native PAGE in 0.5x TBE, recombinant protein, protein details: His6-HaloTag
[2] = tested on: MBP-eYFP-ZnF-Cst (Mus musculus castaneus (CAST/EiJ)); settings: 250 nM protein, polydIdC; 10 mM Tris pH 7.5, 50 mM KCl, 50 uM ZnCl2, 0.05% NP-40 (1x TKZN), usually 50 ng/ul polydIdC, 60 min at RT; 5% native PAGE in 0.5x TBE; recombinant protein; protein details: His, MBP, eYFP; label: 5' biotin
[3] = tested on: ZnF-Cst (Mus musculus castaneus (CAST/EiJ)); settings: 10 mM Tris pH 7.5, 50 mM KCl, 50 uM ZnCl2, 0.05% NP-40 (1x TKZN), usually 50 ng/ul polydIdC, 60 min at RT, 5% native PAGE in 0.5x TBE, protein translated in vitro, protein details: His
[4] = tested on: ZnF-Cst 1-11 (Mus musculus castaneus (CAST/EiJ)); settings: 10 mM Tris pH 7.5, 50 mM KCl, 50 uM ZnCl2, 0.05% NP-40 (1x TKZN), usually 50 ng/ul polydIdC, 60 min at RT, 5% native PAGE in 0.5x TBE, recombinant protein, protein details: His
[5] = tested on: ZnF-Cst 2-11 (Mus musculus castaneus (CAST/EiJ)); settings: 10 nM DNA, polydIdC; 10 mM Tris pH 7.5, 50 mM KCl, 50 uM ZnCl2, 0.05% NP-40 (1x TKZN), usually 50 ng/ul polydIdC, 60 min at RT; 5% native PAGE in 0.5x TBE; recombinant protein; protein details: His; label: 5' biotin
[6] = tested on: ZnF-Cst 2-6 (Mus musculus castaneus (CAST/EiJ)); settings: 10 mM Tris pH 7.5, 50 mM KCl, 50 uM ZnCl2, 0.05% NP-40 (1x TKZN), usually 50 ng/ul polydIdC, 60 min at RT, 5% native PAGE in 0.5x TBE, recombinant protein, protein details: His
[7] = tested on: ZnF-Cst 2-8 (Mus musculus castaneus (CAST/EiJ)); settings: 10 mM Tris pH 7.5, 50 mM KCl, 50 uM ZnCl2, 0.05% NP-40 (1x TKZN), usually 50 ng/ul polydIdC, 60 min at RT, 5% native PAGE in 0.5x TBE, recombinant protein, protein details: His
[8] = tested on: eYFP-PRDM9-Cst (Mus musculus castaneus (CAST/EiJ)); settings: trimer, assay II; 10 mM Tris pH 7.5, 50 mM KCl, 50 uM ZnCl2, 0.05% NP-40 (1x TKZN), usually 50 ng/ul polydIdC, 60 min at RT; 5% native PAGE in 0.5x TBE; protein translated in vitro; protein details: His, eYFP; label: 5' biotin
[9] = tested on: eYFP-ZnF-Cst (Mus musculus castaneus (CAST/EiJ)); settings: 10 mM Tris pH 7.5, 50 mM KCl, 50 uM ZnCl2, 0.05% NP-40 (1x TKZN), usually 50 ng/ul polydIdC, 60 min at RT, 5% native PAGE in 0.5x TBE, protein translated in vitro, protein details: His, eYFP
[10] = tested on: eYFP-ZnF-Cst 1-11 (Mus musculus castaneus (CAST/EiJ)); settings: 10 mM Tris pH 7.5, 50 mM KCl, 50 uM ZnCl2, 0.05% NP-40 (1x TKZN), usually 50 ng/ul polydIdC, 60 min at RT, 5% native PAGE in 0.5x TBE, recombinant protein, protein details: His, eYFP
[11] = tested on: eYFP-ZnF-Cst 2-11 (Mus musculus castaneus (CAST/EiJ)); settings: 10 mM Tris pH 7.5, 50 mM KCl, 50 uM ZnCl2, 0.05% NP-40 (1x TKZN), usually 50 ng/ul polydIdC, 60 min at RT, 5% native PAGE in 0.5x TBE, recombinant protein, protein details: His, eYFP
[12] = lower shift and supershift, label: biotin

Measured: binding result

GTGGGAGGAGATGGTGGGTGAATAGTGTGCAGACTTGGACCCTGCCCTTTCTTTACGCATTCCACTAACCATGGG (double strand) [single-Hlx1 75 bp]
binds: [1]; complex confirmed by MALDI-TOF MS, label: 5' biotin | [2] | [3]; label: 5' biotin | [4]; label: 5' biotin | [5] | [6]; trimer, 5 ZnFs suffice, label: 5' biotin | [7]; label: 5' biotin | [8] | [9]; label: 5' biotin | [10]; label: 5' biotin | [11]; 10 nM DNA, polydIdC, label: 5' biotin

AACCCTGAGCTGCCTAAAGGTCAAATAGTGTGCAGACTTGGACCCTGCCCTTTCTTTAATAGTGTGCAGACTTGGACCCTGCCCTTTCTTTCTGCTGTGAATACCAGAGGCACA (double strand) [tandem-Hlx1 114 bp]
binds: [3]; [12] | [4]; [12] | [6]; small assay I, label: biotin | [7]; small assay I, label: biotin | [9]; [12] | [10]; [12] | [11]; [12]

GAGATGGGGTCCTTTGTGCTTTAATAGTGTGCAGACTTGGACCCTGCCCTTTCTTTGTAAGGCTTCGTGGTATGGGATCCGTGTGGATGAACCCTGAGCTGCCTAAAGGTCACTTGGAGTAAGAAGACTGCTGTGAAATAGTGTGCAGACTTGGACCCTGCCCTTTCTTTTGGAATTATACCAGAGGCACATGCAAGGCTGGGCATCAGCCGGAAGGAAGAAATGGACACAC (double strand) [tandem-Hlx1-BamHI 232 bp]
binds: [1]; lower shift and supershift, BamHI digest separates the complexes, label: biotin
